These are yes or no findings as the source states them, for the method shown. Some entries that bind do so weakly or less than the wild type.
Key:
[1] = biological target: M2 protein of influenza A/Puerto Rico/8/34 (H1N1) on cells (influenza A virus A/Puerto Rico/8/34 (H1N1)) (UniProt P06821); assay: FACS on infected MDCK cells
[2] = biological target: M2 protein of influenza A/Puerto Rico/8/34 (H1N1) on cells (influenza A virus A/Puerto Rico/8/34 (H1N1)) (UniProt P06821); assay: FMAT on PR8-infected MDCK cells
[3] = biological target: M2 protein on influenza A/Puerto Rico/8/34 (H1N1) virus particles (influenza A virus A/Puerto Rico/8/34 (H1N1)) (UniProt P06821); assay: ELISA on purified virus (FIG. 14a)
[4] = biological target: M2 protein on influenza A/Puerto Rico/8/34 (H1N1) virus particles (influenza A virus A/Puerto Rico/8/34 (H1N1)) (UniProt P06821); assay: ELISA on PR8 virus, crude supernatants
[5] = biological target: M2 protein on influenza A/Puerto Rico/8/34 (H1N1) virus particles (influenza A virus A/Puerto Rico/8/34 (H1N1)) (UniProt P06821); assay: ELISA on PR8 virus, crude supernatant
[6] = biological target: M2 protein of influenza A/Puerto Rico/8/34 (H1N1) on cells (influenza A virus A/Puerto Rico/8/34 (H1N1)) (UniProt P06821); assay: FACS, transfected 293 cells, 1 µg/mL
[7] = biological target: M2 protein on influenza A/Puerto Rico/8/34 (H1N1) virus particles (influenza A virus A/Puerto Rico/8/34 (H1N1)) (UniProt P06821); assay: ELISA on influenza virus, crude supernatants
[8] = biological target: M2 protein on influenza A/Puerto Rico/8/34 (H1N1) virus particles (influenza A virus A/Puerto Rico/8/34 (H1N1)) (UniProt P06821); assay: ELISA on purified A/Puerto Rico/8/34 virus
[9] = biological target: M2 protein of influenza A/Puerto Rico/8/34 (H1N1) on cells (influenza A virus A/Puerto Rico/8/34 (H1N1)) (UniProt P06821); assay: FACS on MDCK cells infected with A/Puerto Rico/8/34
[10] = biological target: M2 protein of influenza A/Puerto Rico/8/34 (H1N1) on cells (influenza A virus A/Puerto Rico/8/34 (H1N1)) (UniProt P06821); assay: FACS on transfected 293 cells and on infected MDCK cells
[11] = biological target: M2 protein of influenza A/Puerto Rico/8/34 (H1N1) on cells (influenza A virus A/Puerto Rico/8/34 (H1N1)) (UniProt P06821); assay: FACS, MDCK cells infected with A/Puerto Rico/8/34
[12] = biological target: M2 protein on influenza A/Puerto Rico/8/34 (H1N1) virus particles (influenza A virus A/Puerto Rico/8/34 (H1N1)) (UniProt P06821); assay: ELISA, purified A/Puerto Rico/8/34 virus coated at 10 µg/ml
[13] = biological target: M2 protein of influenza A/Puerto Rico/8/34 (H1N1) on cells (influenza A virus A/Puerto Rico/8/34 (H1N1)) (UniProt P06821); assay: FACS, transfected HEK293, 1 µg/ml [D00006 FIG. 3C-1]
[14] = biological target: M2 protein of influenza A/Puerto Rico/8/34 (H1N1) on cells (influenza A virus A/Puerto Rico/8/34 (H1N1)) (UniProt P06821); assay: FMAT images, MDCK cells infected with A/PR/8, crude supernatant
[15] = biological target: M2 protein of influenza A/Puerto Rico/8/34 (H1N1) on cells (influenza A virus A/Puerto Rico/8/34 (H1N1)) (UniProt P06821); assay: FMAT on MDCK cells infected with A/PR/8/32 (so in the source), crude supernatant
[16] = biological target: M2 protein on influenza A/Puerto Rico/8/34 (H1N1) virus particles (influenza A virus A/Puerto Rico/8/34 (H1N1)) (UniProt P06821); assay: ELISA on A/PR/8 virus, normalised to 8i10 at 10 µg/ml [D00002 FIG. 2B]

By UniProt entry, the sequences of proteins in these tests, tags left out.
UniProt P06821: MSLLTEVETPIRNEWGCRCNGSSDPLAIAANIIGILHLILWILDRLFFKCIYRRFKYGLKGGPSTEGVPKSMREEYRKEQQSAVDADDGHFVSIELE

Measured: binding

B1: 23K12 (antibody, V domains shown)
VH: EVQLVESGGGLVQPGGSLRISCAASGFTVSSNYMSWVRQAPGKGLEWVSVIYSGGSTYYADSVKGRFSFSRDNSKNTVFLQMNSLRAEDTAVYYCARCLSRMRGYGLDVWGQGTTVTVS
VL: DIQMTQSPSSLSASVGDRVTITCRTSQSISSYLNWYQQKPGKAPKLLIYAASSLQSGVPSRFSGSGSGTDFTLTISGLQPEDFATYYCQQSYSMPAFGQGTKLEIK
binds: [1] | [2] | [3] | [4] | [5] | [6] | [7] | [8] | [9] | [10] | [11] | [12] | [13] | [14] | [15] | [16]

Reference: US20120315277A1, “Compositions and Methods for the Therapy and Diagnosis of Influenza” (priority 2011, published 2012)
